# Test results as given in the supplement of paper PMC6411743.
# ± gives the standard deviation of the averaged measurements. The entries are a selection whose mix differs from that of the whole data set.
# What was measured:
# Assay in all cases: NP40-soluble protein abundance relative to vehicle (solubility fold change) (ratio); higher = more soluble protein in presence of ATP
# [1] = target: T1, UniProt Q8N8K9 and related entries
# T1 sequence (whole entry): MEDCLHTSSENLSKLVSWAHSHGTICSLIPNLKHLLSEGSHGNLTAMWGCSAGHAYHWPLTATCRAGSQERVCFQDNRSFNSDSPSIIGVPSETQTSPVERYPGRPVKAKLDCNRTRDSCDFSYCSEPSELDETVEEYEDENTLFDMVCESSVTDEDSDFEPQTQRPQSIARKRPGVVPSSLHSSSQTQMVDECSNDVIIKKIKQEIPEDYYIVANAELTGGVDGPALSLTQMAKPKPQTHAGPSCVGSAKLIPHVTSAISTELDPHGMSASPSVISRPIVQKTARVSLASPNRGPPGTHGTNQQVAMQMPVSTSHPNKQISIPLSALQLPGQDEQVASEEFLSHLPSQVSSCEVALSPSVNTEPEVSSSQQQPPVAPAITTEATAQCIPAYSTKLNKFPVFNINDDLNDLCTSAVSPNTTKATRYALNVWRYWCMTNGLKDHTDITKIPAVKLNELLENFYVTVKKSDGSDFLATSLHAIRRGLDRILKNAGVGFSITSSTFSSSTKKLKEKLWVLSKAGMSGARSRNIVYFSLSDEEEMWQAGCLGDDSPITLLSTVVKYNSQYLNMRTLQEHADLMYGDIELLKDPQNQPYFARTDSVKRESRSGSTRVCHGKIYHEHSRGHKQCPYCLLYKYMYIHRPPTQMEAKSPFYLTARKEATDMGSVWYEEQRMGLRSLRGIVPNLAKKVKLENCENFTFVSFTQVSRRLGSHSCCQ
# Procedure, shortened: (§1)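 Each value is a fold change relative to the detergent-processed vehicle, calculated per replicate from vsn-normalised intensities. Jurkat crude lysate received eight concentrations (0.1 to 10 mM) for 10 min at room temperature and 3 min at 37 °C, then was solubilised in 0.8% NP40 with benzonase (60 min, 4 °C). The ultracentrifuged supernatant was TMT-labelled and run by LC-MS/MS in three independent experiments.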
# [2] = target: T2, UniProt Q8NBZ7 and related entries
# T2 sequence (whole entry): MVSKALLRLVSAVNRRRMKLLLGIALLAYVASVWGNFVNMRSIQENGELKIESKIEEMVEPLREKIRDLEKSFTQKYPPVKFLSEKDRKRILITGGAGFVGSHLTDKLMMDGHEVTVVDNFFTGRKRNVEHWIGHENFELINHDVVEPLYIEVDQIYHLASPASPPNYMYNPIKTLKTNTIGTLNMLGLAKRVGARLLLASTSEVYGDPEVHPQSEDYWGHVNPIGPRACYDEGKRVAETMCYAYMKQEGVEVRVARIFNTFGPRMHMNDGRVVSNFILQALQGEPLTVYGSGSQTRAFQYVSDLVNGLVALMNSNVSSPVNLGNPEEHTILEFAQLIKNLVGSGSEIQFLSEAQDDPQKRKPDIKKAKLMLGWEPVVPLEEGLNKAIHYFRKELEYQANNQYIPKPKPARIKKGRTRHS
# Procedure, shortened: as §1
# [3] = target: T3, UniProt Q8NDD1 and related entries
# T3 sequence (whole entry): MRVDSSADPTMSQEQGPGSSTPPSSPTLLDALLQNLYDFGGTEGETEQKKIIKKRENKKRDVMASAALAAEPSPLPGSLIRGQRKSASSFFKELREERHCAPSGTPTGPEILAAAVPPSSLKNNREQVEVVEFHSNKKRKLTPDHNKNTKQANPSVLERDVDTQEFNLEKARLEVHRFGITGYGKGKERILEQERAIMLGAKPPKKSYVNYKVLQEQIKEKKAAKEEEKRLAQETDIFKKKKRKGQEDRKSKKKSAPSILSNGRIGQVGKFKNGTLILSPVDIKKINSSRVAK
# Procedure, shortened: as §1
# [4] = target: T4, UniProt Q8NEY8 and related entries
# T4 sequence (whole entry): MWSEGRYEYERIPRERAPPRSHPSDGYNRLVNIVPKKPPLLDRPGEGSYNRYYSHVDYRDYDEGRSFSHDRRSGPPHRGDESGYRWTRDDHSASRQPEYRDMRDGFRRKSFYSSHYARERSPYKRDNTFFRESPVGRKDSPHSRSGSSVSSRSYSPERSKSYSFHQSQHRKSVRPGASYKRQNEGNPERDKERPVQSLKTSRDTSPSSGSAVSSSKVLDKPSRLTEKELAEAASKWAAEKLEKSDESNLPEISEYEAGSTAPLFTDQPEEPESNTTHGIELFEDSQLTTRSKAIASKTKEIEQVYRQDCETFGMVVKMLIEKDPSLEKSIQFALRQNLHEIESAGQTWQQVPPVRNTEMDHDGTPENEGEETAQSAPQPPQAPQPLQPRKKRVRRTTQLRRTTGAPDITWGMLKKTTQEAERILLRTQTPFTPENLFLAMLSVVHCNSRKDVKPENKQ
# Procedure, shortened: as §1
# [5] = target: T5, UniProt Q8NFV4 and related entries
# T5 sequence (whole entry): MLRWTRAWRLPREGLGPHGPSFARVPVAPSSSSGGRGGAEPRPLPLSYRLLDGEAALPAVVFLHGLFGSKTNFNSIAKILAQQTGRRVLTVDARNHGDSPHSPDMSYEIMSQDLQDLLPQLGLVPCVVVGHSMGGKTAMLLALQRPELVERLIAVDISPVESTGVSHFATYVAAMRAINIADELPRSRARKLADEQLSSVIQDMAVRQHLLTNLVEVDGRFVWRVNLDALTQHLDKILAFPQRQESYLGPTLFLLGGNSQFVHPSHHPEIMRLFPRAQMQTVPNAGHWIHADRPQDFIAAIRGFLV
# Procedure, shortened: as §1
# [6] = target: T6, UniProt Q8TAA5 and related entries
# T6 sequence (whole entry): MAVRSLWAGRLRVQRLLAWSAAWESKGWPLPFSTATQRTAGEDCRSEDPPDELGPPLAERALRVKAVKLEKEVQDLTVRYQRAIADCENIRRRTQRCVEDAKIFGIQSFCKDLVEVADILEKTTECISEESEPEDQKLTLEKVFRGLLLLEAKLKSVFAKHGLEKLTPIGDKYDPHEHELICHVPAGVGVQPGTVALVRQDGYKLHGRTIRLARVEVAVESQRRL
# Procedure, shortened: as §1
smiles,measurement,setting,value
Nc1ncnc2c1ncn2[C@@H]1O[C@H](COP(=O)(O)OP(=O)(O)OP(=O)(O)O)[C@@H](O)[C@H]1O [adenosine triphosphate],NP40-soluble protein abundance,[1]; concentration: 8mM,0.971 ± 0.075
same,NP40-soluble protein abundance,[1]; concentration: 10mM,1.01 ± 0.051
same,NP40-soluble protein abundance,[2]; concentration: 1mM,1.06 ± 0.1
same,NP40-soluble protein abundance,[2]; concentration: 2mM,1.02 ± 0.056
same,NP40-soluble protein abundance,[2]; concentration: 4mM,1.01 ± 0.092
same,NP40-soluble protein abundance,[2]; concentration: 6mM,1.04 ± 0.065
same,NP40-soluble protein abundance,[2]; concentration: 8mM,1.06 ± 0.063
same,NP40-soluble protein abundance,[2]; concentration: 10mM,1.06 ± 0.045
same,NP40-soluble protein abundance,[3]; concentration: 1mM,1.05 ± 0.045
same,NP40-soluble protein abundance,[3]; concentration: 2mM,1.11 ± 0.054
same,NP40-soluble protein abundance,[3]; concentration: 4mM,1.199 ± 0.011
same,NP40-soluble protein abundance,[3]; concentration: 6mM,1.28 ± 0.049
same,NP40-soluble protein abundance,[3]; concentration: 8mM,1.25 ± 0.066
same,NP40-soluble protein abundance,[3]; concentration: 10mM,1.32 ± 0.057
same,NP40-soluble protein abundance,[4]; concentration: 1mM,1.03 ± 0.052
same,NP40-soluble protein abundance,[4]; concentration: 2mM,1.1 ± 0.046
same,NP40-soluble protein abundance,[4]; concentration: 4mM,1.22 ± 0.025
same,NP40-soluble protein abundance,[4]; concentration: 6mM,1.27 ± 0.094
same,NP40-soluble protein abundance,[4]; concentration: 8mM,1.27 ± 0.096
same,NP40-soluble protein abundance,[4]; concentration: 10mM,1.32 ± 0.018
same,NP40-soluble protein abundance,[5]; concentration: 1mM,0.963 ± 0.11
same,NP40-soluble protein abundance,[5]; concentration: 2mM,1.01 ± 0.053
same,NP40-soluble protein abundance,[5]; concentration: 4mM,0.962 ± 0.046
same,NP40-soluble protein abundance,[5]; concentration: 6mM,0.943 ± 0.08
same,NP40-soluble protein abundance,[5]; concentration: 8mM,0.957 ± 0.034
same,NP40-soluble protein abundance,[5]; concentration: 10mM,0.884 ± 0.12
same,NP40-soluble protein abundance,[6]; concentration: 1mM,0.963 ± 0.13
same,NP40-soluble protein abundance,[6]; concentration: 2mM,0.991 ± 0.097
same,NP40-soluble protein abundance,[6]; concentration: 4mM,0.962 ± 0.12
same,NP40-soluble protein abundance,[6]; concentration: 6mM,0.898 ± 0.093
same,NP40-soluble protein abundance,[6]; concentration: 8mM,0.907 ± 0.15
same,NP40-soluble protein abundance,[6]; concentration: 10mM,0.937 ± 0.06

# Shown with bars between the fields: part of the list above.
smiles | measurement | setting | value
Nc1ncnc2c1ncn2[C@@H]1O[C@H](COP(=O)(O)OP(=O)(O)OP(=O)(O)O)[C@@H](O)[C@H]1O [adenosine triphosphate] | NP40-soluble protein abundance | [3]; concentration: 8mM | 1.25 ± 0.066
same | NP40-soluble protein abundance | [3]; concentration: 10mM | 1.32 ± 0.057
same | NP40-soluble protein abundance | [4]; concentration: 1mM | 1.03 ± 0.052
same | NP40-soluble protein abundance | [4]; concentration: 2mM | 1.1 ± 0.046
same | NP40-soluble protein abundance | [4]; concentration: 4mM | 1.22 ± 0.025
same | NP40-soluble protein abundance | [4]; concentration: 6mM | 1.27 ± 0.094
same | NP40-soluble protein abundance | [4]; concentration: 8mM | 1.27 ± 0.096
same | NP40-soluble protein abundance | [4]; concentration: 10mM | 1.32 ± 0.018
